Test results as given in patent US20160368979A1.
These are yes or no findings as the source states them, for the method shown.

Amino acid sequences for entries named in this document (tags omitted). Residues count along the entry.
UniProt P02769, residues 25-607: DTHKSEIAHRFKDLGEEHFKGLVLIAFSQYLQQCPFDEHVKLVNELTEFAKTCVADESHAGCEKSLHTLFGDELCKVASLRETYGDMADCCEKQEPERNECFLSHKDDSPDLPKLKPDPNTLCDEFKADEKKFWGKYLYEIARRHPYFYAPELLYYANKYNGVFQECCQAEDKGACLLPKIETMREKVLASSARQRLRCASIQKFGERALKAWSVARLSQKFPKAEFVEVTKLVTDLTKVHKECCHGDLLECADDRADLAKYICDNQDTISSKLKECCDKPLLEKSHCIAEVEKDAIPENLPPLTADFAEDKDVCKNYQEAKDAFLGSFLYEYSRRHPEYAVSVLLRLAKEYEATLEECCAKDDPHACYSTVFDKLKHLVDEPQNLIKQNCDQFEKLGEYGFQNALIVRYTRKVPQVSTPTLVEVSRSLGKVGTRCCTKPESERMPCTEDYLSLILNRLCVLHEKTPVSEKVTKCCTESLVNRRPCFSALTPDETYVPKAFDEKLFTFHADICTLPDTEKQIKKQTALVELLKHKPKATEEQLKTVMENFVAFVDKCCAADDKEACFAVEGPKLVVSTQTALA

Molecular target: BSA (bovine) (UniProt P02769)
Assay: condition: 5 µg hCM101 (no amount on the sheet); ELISA on coated antigen, O.D reading

binding: no binding
B1: hCM101 (fully humanized anti-eotaxin-2 monoclonal antibody, humanized variant VH1/VK3) (antibody, human IgG1, V domains shown)
VH: QIQLVQSGPELKKPGASVKVSCRASGYPFTNSGMNWVKQAPGKGLKWMGWINTYNGEPTYTDDFKGRFAFSLETSASTAYLQINNLRNEDTATYFCASHSYGSSYAMDNWGQGTSVTVSS
VL: DIVLTQSPDSLAVSLGERATINCKASQSVDYDGDSYMNWYQQKPGQPPKLLIYVASNLKSGIPARFSGSGSGTDFTLTISSLQPEDFATYYCQQSNEEPWTFGGGTKVEIK
